Data published in PubChem BioAssay AID504467 (National Center for Advancing Translational Sciences (NCATS), 2011).
Screen size: about 330,000 compounds; about 7,700 (2.3%) were called active. Inconclusive means that the source gave no clear call. Such entries were picked first, then a sample of the others. The call rests on the fitted dose curve; in most records, active means well fitted inhibition curve with a large enough effect; inconclusive means small, poorly fitted or top-dose-only effect, or effect the other way; inactive means flat fitted curve, though single readings scatter. Potencies of inconclusive entries are doubtful fits and often do not repeat.

assay: qHTS screen for small molecules that inhibit ELG1-dependent DNA repair in human embryonic kidney (HEK293T) cells expressing luciferase-tagged ELG1; details: HEK293T ELG1-luciferase reporter, luminescence, 16 h, DNA damage induced by 5-fluorouridine; activity change, negative = inhibition: at 46.1 µM (top of the series); further: nearly all actives have a fitted effect of over 55% in size
Outline: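 Cells (2,000 per well) received 5-fluorouridine plus test compound or DMSO and were incubated 16 hr at 37 °C, 5% CO2. Luciferase activity was read by luminescence 30 min after ONE-Glo addition; signal suppression marked inhibition of damage-induced ELG1 function.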
On the % scale 0 is the no-effect control and ±100 the full control effect; potency means the concentration at half of the fitted maximal effect.

Which Potency does the source give for CCC(=O)N1CCc2cc(S(=O)(=O)N3CCN(c4ccccn4)CC3)ccc21 here?
Its Potency is inconclusive: 20.6 µM [inhibitor, single point].

With CCN(c1ccccc1)S(=O)(=O)c1ccc(C(=O)Nc2ccc(C)cn2)cc1 as the compound, how does the Potency read?
Its Potency is inconclusive: 29.1 µM [inhibitor, single point].

For C=CCN1C(=O)/C(=C\c2cccs2)C(C(=O)OC)=C1C, which “activity change, negative = inhibition” value is on record?
The value was inactive: -19.9%.

With Cc1ccccc1Cn1cccc1/C=C1/C(=N)N2C=CSC2=NC1=O as the compound, how does the Potency read?
The Potency was inconclusive: 16.4 µM [inhibitor, partial curve, poor fit].

For Cc1cc(/C=C(\C#N)C(=O)NCc2ccco2)c(C)[nH]1, which Potency is on record?
The Potency was inconclusive: 20.6 µM [activator, single point].

With COc1ccc(-c2nsc3c(SCC(=O)Nc4cc(C)ccc4C)ncnc23)cc1 as the compound, how does the “activity change, negative = inhibition” value read?
Its value is inactive: 13.9%.

For COc1ccc(-n2nc(C(=O)NCC(=O)NCC3CCCO3)c3ccccc3c2=O)cc1Cl (stereo not given), which Potency is on record?
Its Potency is inconclusive: 18.4 µM [inhibitor, partial curve, poor fit].

Which Potency does the source give for CC(Sc1nc(NCc2ccccc2)nc(N(C)C)n1)C(=O)Nc1ccccc1 (stereo not given) here?
The Potency was inconclusive: 18.4 µM [inhibitor, single point].

For c1ccc(-c2csc(Nc3cccnc3)n2)nc1, which Potency is on record?
The Potency was inconclusive: 9.2 µM [activator, partial curve].

Which Potency does the source give for O=C1c2ccccc2NC(c2ccco2)N1/N=C/c1ccco1 (stereo not given) here?
The Potency was inconclusive: 29.1 µM [activator, single point].

Which “activity change, negative = inhibition” value does the source give for CC1=NN(C(=O)Cn2ccc([N+](=O)[O-])n2)C(O)(C(F)(F)F)C1 (stereo not given) here?
The value was inactive: -6.97%.

Which Potency does the source give for O=C(/C=C/NCC(=O)c1ccccc1)c1ccc(Br)cc1 here?
Its Potency is inconclusive: 16.4 µM [activator, single point].

With O=C(C1CCN(CCCc2ccccc2)CC1)N(CCc1ccccc1)Cc1ccccc1 as the compound, how does the Potency read?
Its Potency is inconclusive: 20.6 µM [inhibitor, single point].

For COC(=O)COc1ccc(-c2nccc(-c3ccccn3)n2)cc1, which Potency is on record?
The Potency was inconclusive: 9.2 µM [activator, partial curve].

For CCn1c(CCNC(=O)c2ccc(OC)cc2)nnc1SCc1ccc(Cl)cc1Cl, which Potency is on record?
The Potency was inconclusive: 25.9 µM [inhibitor, partial curve, poor fit].

With c1ccc(-c2ccc3c(c2)NCCN3)cc1 as the compound, how does the “activity change, negative = inhibition” value read?
The value was inactive: 23.5%.

For CNC(=O)COc1ccc2oc3c(c2c1)CCCC3, which Potency is on record?
The Potency was inconclusive: 18.3 µM [activator, single point].

With O=[N+]([O-])c1ccccc1/C=N/NC1=NCCCCC1 as the compound, how does the Potency read?
The Potency was inconclusive: 18.4 µM [activator, partial curve].

For O=C(Nc1ccc2oc(-c3ccncc3)nc2c1)c1ccc([N+](=O)[O-])o1, which Potency is on record?
Its Potency is inconclusive: 20.6 µM [inhibitor, partial curve, poor fit].

For COc1ccccc1-c1cnn2c(NCCc3ccccc3)cc(C)nc12, which Potency is on record?
Its Potency is inconclusive: 23.1 µM [activator, single point].

For Cc1ccc(-n2c(O)c(C=Nc3cc(C)on3)c3ccccc3c2=O)c(C)c1, which Potency is on record?
The Potency was inconclusive: 18.4 µM [inhibitor, single point].

For O=C(NCCOc1ccccc1)c1cc(C(=O)NCCOc2ccccc2)cc([N+](=O)[O-])c1, which Potency is on record?
The Potency was inconclusive: 29.1 µM [inhibitor, single point].

For O=C(c1ccccc1)N1N=C(C(F)(F)F)CC1(O)c1ccccc1O (stereo not given), which “activity change, negative = inhibition” value is on record?
Its value is inactive: 14.5%.

For COc1ccc(CCNC(=O)c2cc3c(=O)n4ccccc4nc3n(CCN3CCOCC3)c2=N)cc1, which Potency is on record?
The Potency was inconclusive: 20.6 µM [inhibitor, partial curve].

Which Potency does the source give for N#C/C(=C\c1c(N2CCN(c3ccccc3)CC2)nc2ccccn2c1=O)C(N)=O here?
The Potency was inconclusive: 13 µM [activator, partial curve].

Which Potency does the source give for CCNC(=O)/C(C#N)=C/c1c(N2CCN(c3ccc(OC)cc3)CC2)nc2c(C)cccn2c1=O here?
The Potency was active: 23.1 µM.

For Cc1cc(/C=N/Nc2ncnc(N)c2[N+](=O)[O-])c(C)n1-c1ccccc1, which Potency is on record?
Its Potency is inconclusive: 0.073 µM [activator, full curve].

For COc1ccc(C(=O)NCc2cc(C)nc3ccccc23)cc1, which Potency is on record?
Its Potency is inconclusive: 9.2 µM [inhibitor, partial curve].

With O=C(NCCC(c1ccccc1)c1ccco1)c1cccs1 (stereo not given) as the compound, how does the Potency read?
Its Potency is inconclusive: 16.4 µM [activator, partial curve].

Which “activity change, negative = inhibition” value does the source give for O=C(CCc1nc2ccccc2[nH]1)Nc1ccc2c(c1)OCCO2 here?
The value was inactive: 18.3%.

Which “activity change, negative = inhibition” value does the source give for CCCNC(=O)NC(=O)CN1C(=O)NC(C)(c2ccc(C)cc2)C1=O (stereo not given) here?
Its value is inactive: 2.13%.

For Cc1c(C(=O)Nc2ccccc2)sc2nc3n(c(=O)c12)CCCCC3, which Potency is on record?
The Potency was inconclusive: 2.59 µM [activator, partial curve].

For COc1ccc(S(=O)(=O)Nc2c(NC3CCCCC3)c3ccccc3oc2=O)cc1, which “activity change, negative = inhibition” value is on record?
The value was inactive: -19.1%.

Which “activity change, negative = inhibition” value does the source give for Cc1nnc(NC(=O)CSc2ccc3nnc(-c4cccnc4)n3n2)s1 here?
Its value is inactive: -0.185%.

For COc1ccc(-c2nc(-c3ccncc3)no2)cc1, which Potency is on record?
Its Potency is inconclusive: 2.06 µM [activator, full curve].

For O=c1c(CN2CCN(c3ccccn3)CC2)coc2ccccc12, which “activity change, negative = inhibition” value is on record?
Its value is inactive: -5.37%.

With Cc1[nH]nc(-c2ccc(O)c(C)c2O)c1-c1cnn(-c2ccccc2)c1 as the compound, how does the Potency read?
The Potency was inconclusive: 20.6 µM [inhibitor, single point].

With Cc1cccc(C)c1NC(=O)C(c1ccccc1)N1CCOCC1 (stereo not given) as the compound, how does the “activity change, negative = inhibition” value read?
Its value is inactive: -22.3%.

With Cc1nc2ccccc2c2nc3ccccc3n12 as the compound, how does the “activity change, negative = inhibition” value read?
The value was inactive: -7.66%.

For CCOC(=O)C1CCCN(CCC(=O)Nc2cccc(C)c2)C1 (stereo not given), which Potency is on record?
The Potency was inconclusive: 13 µM [activator, partial curve].

Which “activity change, negative = inhibition” value does the source give for CCOc1cccc(C2CC(=O)Nc3cc(OC)c(OC)cc32)c1 (stereo not given) here?
The value was inactive: 0.877%.

With CCCOc1cccc(C(=O)N(Cc2ccc(OC)c(OC)c2)C2CCS(=O)(=O)C2)c1 (stereo not given) as the compound, how does the Potency read?
Its Potency is inconclusive: 18.4 µM [inhibitor, single point].

For Cc1cccc(-c2noc(CN(C)C(=O)c3ccoc3C)n2)c1, which “activity change, negative = inhibition” value is on record?
Its value is inactive: 22.5%.

Which Potency does the source give for Cc1ccc(C(=O)Nc2ccc(F)cc2)o1 here?
Its Potency is inconclusive: 29.1 µM [activator, single point].

With CCOC(=O)c1[nH]c2c(c1-c1ccccc1)C(=O)CC(c1ccc(OC)c(OC)c1)C2 (stereo not given) as the compound, how does the Potency read?
Its Potency is inconclusive: 23.1 µM [inhibitor, partial curve].
